Assay results from publication PMC4049605.
No constants are given. Whether binding was seen depends on the method and setting. Binding seen in cells or lysates may run through a third protein. Some results given as binding are weak or reduced against the parent protein; the word gives no strength. Tags and fused reporters may be left off the sequences shown.

Columns and labels:
Test in all cases: pull-down; 50 µg GST fusion on glutathione-Sepharose beads; lysate of HeLa-M cells transfected with Myc-Munc18-2; STEP buffer (10 mM Tris pH 8.0, 150 mM NaCl, 1 mM EDTA, 1 mM DTT, 1 mM PMSF) with 0.5% Triton X-100; 4°C, 2 h; immunoblot for SNAP23 and Myc tag; only the target purified
GST-syntaxin 11 (human) = target: T1, GST-syntaxin 11 (human) (UniProt O75558)
T1 sequence: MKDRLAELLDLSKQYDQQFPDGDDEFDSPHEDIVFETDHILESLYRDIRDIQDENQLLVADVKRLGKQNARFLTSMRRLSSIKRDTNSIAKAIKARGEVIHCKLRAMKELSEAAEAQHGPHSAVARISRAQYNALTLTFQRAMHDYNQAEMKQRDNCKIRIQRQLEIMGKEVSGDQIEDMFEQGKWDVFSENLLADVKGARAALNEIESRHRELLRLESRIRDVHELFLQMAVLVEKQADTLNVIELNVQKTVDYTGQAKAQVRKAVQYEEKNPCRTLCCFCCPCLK

[1] = target: T2, GST-syntaxin 11 E25X (human) (UniProt O75558)
T2 sequence: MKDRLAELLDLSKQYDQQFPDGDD

[2] = target: T3, GST-syntaxin 11 Q268X (human) (UniProt O75558)
T3 sequence: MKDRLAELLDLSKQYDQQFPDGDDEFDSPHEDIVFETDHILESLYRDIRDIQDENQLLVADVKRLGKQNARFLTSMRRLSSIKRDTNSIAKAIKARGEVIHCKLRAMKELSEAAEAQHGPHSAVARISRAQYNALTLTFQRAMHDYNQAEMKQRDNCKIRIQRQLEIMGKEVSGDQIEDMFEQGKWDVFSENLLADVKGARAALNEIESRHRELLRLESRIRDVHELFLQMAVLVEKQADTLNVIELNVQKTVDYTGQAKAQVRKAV

Measured: binding

B1: Myc-Munc18-2 (protein, UniProt Q15833 1-593)
chain: MAPSGLKAVVGEKILSGVIRSVKKDGEWKVLIMDHPSMRILSSCCKMSDILAEGITIVEDINKRREPIPSLEAIYLLSPTEKSVQALIKDFQGTPTFTYKAAHIFFTDTCPEPLFSELGRSRLAKVVKTLKEIHLAFLPYEAQVFSLDAPHSTYNLYCPFRAEERTRQLEVLAQQIATLCATLQEYPAIRYRKGPEDTAQLAHAVLAKLNAFKADTPSLGEGPEKTRSQLLIMDRAADPVSPLLHELTFQAMAYDLLDIEQDTYRYETTGLSEAREKAVLLDEDDDLWVELRHMHIADVSKKVTELLRTFCESKRLTTDKANIKDLSQILKKMPQYQKELNKYSTHLHLADDCMKHFKGSVEKLCSVEQDLAMGSDAEGEKIKDSMKLIVPVLLDAAVPAYDKIRVLLLYILLRNGVSEENLAKLIQHANVQAHSSLIRNLEQLGGTVTNPGGSGTSSRLEPRERMEPTYQLSRWTPVIKDVMEDAVEDRLDRNLWPFVSDPAPTASSQAAVSARFGHWHKNKAGIEARAGPRLIVYVMGGVAMSEMRAAYEVTRATEGKWEVLIGSSHILTPTRFLDDLKALDKKLEDIALP
binds: GST-syntaxin 11 (human) | [1] | [2]
